Source: patent US20220194952A1, “TETRAPYRROLIC CONJUGATES AND USES THEREOF FOR IMAGING” (Health Research, Inc., priority 2019, published 2022)
For at least one compound, name, drawing or mass did not settle the structure.

System: Colon26 tumors
Test: PET imaging of 124I-analogs
Settings: ethanol/PBS formulation, 25 μCi/mouse, postinjection

CCC1=C(C)c2cc3[nH]c(cc4nc(c5c6[nH]c(cc1n2)c(C)c6C(=O)C5)[C@@H](CCC(=O)OC)[C@@H]4C)c(C)c3C(C)OCc1cccc(I)c1 (stereo partly shown) [Compound 2a, 3-(1′-m-iodobenzyloxy) ethyl-3-devinyl-pyropheo phorbide-a methyl ester]
time of best tumor contrast (PET): 48 and 72 h
